No constants are given. Whether binding was seen depends on the method and setting. In cells and extracts the contact can be indirect. Some results given as binding are weak or reduced against the parent protein; the word gives no strength.

Protein sequences, listed by entry. Tags and fused reporters are not part of them.
UniProt P05556: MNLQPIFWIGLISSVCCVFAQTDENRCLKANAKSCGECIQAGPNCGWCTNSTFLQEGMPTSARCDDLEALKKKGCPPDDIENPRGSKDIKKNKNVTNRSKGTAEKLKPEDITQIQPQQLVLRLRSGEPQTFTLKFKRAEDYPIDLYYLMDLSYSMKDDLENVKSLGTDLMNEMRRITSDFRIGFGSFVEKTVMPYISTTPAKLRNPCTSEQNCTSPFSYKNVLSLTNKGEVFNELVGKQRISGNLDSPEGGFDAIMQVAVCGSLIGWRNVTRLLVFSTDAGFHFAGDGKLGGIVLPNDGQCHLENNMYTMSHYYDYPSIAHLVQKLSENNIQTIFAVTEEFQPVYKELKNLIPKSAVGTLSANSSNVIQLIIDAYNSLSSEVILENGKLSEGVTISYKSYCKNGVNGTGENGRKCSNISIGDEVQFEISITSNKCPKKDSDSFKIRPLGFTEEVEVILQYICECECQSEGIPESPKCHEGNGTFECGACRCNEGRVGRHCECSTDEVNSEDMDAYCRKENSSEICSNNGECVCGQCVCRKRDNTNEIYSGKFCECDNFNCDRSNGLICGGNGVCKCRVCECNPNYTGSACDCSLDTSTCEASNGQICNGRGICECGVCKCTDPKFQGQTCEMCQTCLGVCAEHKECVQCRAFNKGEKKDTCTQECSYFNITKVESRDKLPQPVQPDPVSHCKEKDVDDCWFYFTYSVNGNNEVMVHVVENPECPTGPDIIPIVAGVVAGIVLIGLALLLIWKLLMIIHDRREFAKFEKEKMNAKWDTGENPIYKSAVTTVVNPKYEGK
UniProt Q13418: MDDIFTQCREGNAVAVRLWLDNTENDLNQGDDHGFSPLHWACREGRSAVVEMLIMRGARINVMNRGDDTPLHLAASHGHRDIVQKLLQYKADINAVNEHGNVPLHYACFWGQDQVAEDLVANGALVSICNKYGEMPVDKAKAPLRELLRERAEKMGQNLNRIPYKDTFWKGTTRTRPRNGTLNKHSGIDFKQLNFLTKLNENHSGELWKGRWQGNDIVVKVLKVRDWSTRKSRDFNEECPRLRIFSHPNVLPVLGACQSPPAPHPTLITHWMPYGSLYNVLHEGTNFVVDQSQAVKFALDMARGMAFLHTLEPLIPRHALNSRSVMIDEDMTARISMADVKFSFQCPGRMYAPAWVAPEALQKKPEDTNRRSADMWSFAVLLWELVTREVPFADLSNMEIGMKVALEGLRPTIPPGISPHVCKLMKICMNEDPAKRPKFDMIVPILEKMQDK

Assay [1] deals with T1, CCDC25 (human (endogenous in MIA PaCa-2)) (UniProt Q86WR0).
T1 sequence: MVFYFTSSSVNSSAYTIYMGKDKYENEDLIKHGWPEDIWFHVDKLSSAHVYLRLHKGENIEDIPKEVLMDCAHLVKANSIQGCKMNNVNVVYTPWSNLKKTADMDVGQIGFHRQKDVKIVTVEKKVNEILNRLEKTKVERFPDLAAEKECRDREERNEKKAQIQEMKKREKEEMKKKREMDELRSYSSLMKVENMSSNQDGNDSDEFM
The experiment in a line: co-IP.

Assay [2] concerns the target beta1 integrin (ITGB1) (human (endogenous in MIA PaCa-2)) (UniProt P05556). The experiment in a line: co-IP.

As for “Integrin-Linked Kinase (ILK) (from UniProt Q13418 1-452)”, the binding result in assay [1] is “binds”.

B1: CCDC25 (receptor, UniProt Q86WR0 1-208)
chain: MVFYFTSSSVNSSAYTIYMGKDKYENEDLIKHGWPEDIWFHVDKLSSAHVYLRLHKGENIEDIPKEVLMDCAHLVKANSIQGCKMNNVNVVYTPWSNLKKTADMDVGQIGFHRQKDVKIVTVEKKVNEILNRLEKTKVERFPDLAAEKECRDREERNEKKAQIQEMKKREKEEMKKKREMDELRSYSSLMKVENMSSNQDGNDSDEFM
In the case of B1, the binding result in assay [2] is reported as “binds”.

For the origin of these results see article doi:10.1101/2024.11.15.622336.
